Assay results taken from US6982082B1 (President and Fellows of Harvard College, priority 1996, dated 2006).

Experiment: general procedure: solution-phase peptide synthesis; PyAop

Substance	step yield (coupling step)	step yield (late stage modification step)
Fmoc-CpSar-MeBmt-Abu-Sar-MeLeu-Val-MeLeu-Ala-D-Ala-MeLeu-Meleuvalinol ester	99%	
HNMe-CpSar-MeBmt-Abu-Sar-MeLeu-Val-MeLeu-Ala-D-Ala-MeLeu-Meleu-OH		59%
